Data: article PMC6102255, “EPO does not promote interaction between the erythropoietin and beta-common receptors” (Scientific Reports, 2018)
These are yes or no findings as the source states them, for the method shown. Where a sequence is shown, tags or fusion partners need not be part of it.

T1: βc-His (extracellular regions of the βc receptor with C-terminal 6xHis tag) (UniProt P32927)
T1 sequence: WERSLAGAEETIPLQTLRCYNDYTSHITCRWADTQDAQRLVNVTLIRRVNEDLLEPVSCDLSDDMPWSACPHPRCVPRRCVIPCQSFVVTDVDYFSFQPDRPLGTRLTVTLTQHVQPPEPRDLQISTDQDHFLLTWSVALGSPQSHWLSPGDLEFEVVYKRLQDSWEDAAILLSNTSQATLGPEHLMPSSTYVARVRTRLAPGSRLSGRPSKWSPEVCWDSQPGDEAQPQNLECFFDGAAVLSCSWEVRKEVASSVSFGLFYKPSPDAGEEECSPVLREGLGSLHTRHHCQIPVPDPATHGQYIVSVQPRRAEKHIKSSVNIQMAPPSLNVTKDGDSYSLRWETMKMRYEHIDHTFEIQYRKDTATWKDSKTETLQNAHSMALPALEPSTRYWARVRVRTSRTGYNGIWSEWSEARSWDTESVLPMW

T2: EPOR-His (extracellular domains of EPOR with C-terminal 6xHis tag) (UniProt P19235)
T2 sequence: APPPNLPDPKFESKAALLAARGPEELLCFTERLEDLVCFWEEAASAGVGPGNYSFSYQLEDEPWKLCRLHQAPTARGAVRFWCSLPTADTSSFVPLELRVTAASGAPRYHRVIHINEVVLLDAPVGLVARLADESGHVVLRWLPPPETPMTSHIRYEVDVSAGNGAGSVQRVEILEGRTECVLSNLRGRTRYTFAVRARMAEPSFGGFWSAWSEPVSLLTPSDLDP

B1: ARA290 peptide (peptide)
peptide: EQLERALNSS
modifications: pyroglutamic acid (pE) at the N-terminus
B2: βc receptor extracellular regions, His tag cleaved by TEV protease (domain or fragment, UniProt P32927 17-443)
chain: T1 sequence
B3: EPOR extracellular domains, His tag cleaved by TEV protease (domain or fragment, UniProt P19235 25-250)
chain: T2 sequence

Tests used:
[1] = biological target: T1, βc-His (extracellular regions of the βc receptor with C-terminal 6xHis tag); assay: pull-down; EPOR-His or βc-His (20 μg) held on His-tag purification resin, washed (50 mM phosphate, 300 mM NaCl, 5 mM imidazole, pH 8), incubated 2 hr at room temperature with the untagged partner or with ARA290 alone; SDS-PAGE (coomassie) and mass spectrometry; both purified
[2] = biological target: T2, EPOR-His (extracellular domains of EPOR with C-terminal 6xHis tag); assay: as above
[3] = biological target: T2, EPOR-His (extracellular domains of EPOR with C-terminal 6xHis tag); assay: pull-down; EPOR-His or βc-His held on His-tag purification resin, incubated with the untagged partner in the presence of ARA290 (1:3 molar ratio of immobilised protein:ARA290), 2 hr at room temperature; SDS-PAGE (coomassie) and mass spectrometry; both purified
[4] = biological target: T1, βc-His (extracellular regions of the βc receptor with C-terminal 6xHis tag); assay: as above

Row | Binder | binding [1] | binding [2] | binding [3] | binding [4]
1 | B1 | no binding | no binding | – | –
2 | B2 | – | no binding | no binding | –
3 | B3 | – | – | – | no binding
